Laboratory results taken from PubChem BioAssay AID330 (DTP/NCI, 2004).
The list shows only some results of the screen, not a fair sample: it is rich in T/C values a quarter to a half above the control, in often repeated tests (any T/C) and in doses without a T/C. Further doses and runs are listed elsewhere. T/C: endpoint of the treated group in % of that of the vehicle group. Some entries give survivors of the animals treated and no T/C: the source holds a T/C of zero for them, seemingly a mark for toxic or unscored doses. Some doses without a T/C left all or most animals alive at the check, yet need not have been tolerated: the source hardly ever lists a survival T/C far under the control, and the zero likely stands for such cases as well. Counts of survivors are from the toxicity check (mostly the fifth day) where no day follows; animals may have died later. Schedule codes are those of the source, taken here to give the interval after Q, in days (D) or hours (H), and the number of doses after X. Some doses were run more than once; the results are listed from low to high. For survival time, the PubChem record calls one and a half times the control and up active, and a quarter to a half above the control has no call in these data; cut-offs in other NCI protocols can differ.

System: P388 leukemia ip, CD2F1 mice, survival T/C
Experiment: NCI In Vivo Anticancer Drug Screen. Data for tumor model P388 Leukemia (intraperitoneal) in CD2F1 (CDF1) mice
Conditions: T/C endpoint: median survival time, higher T/C = longer survival
[1] = dose: 200.0 mg/kg/injection, schedule: Q01DX009 (ip), vehicle: saline with Tween-80
[2] = dose: 50.0 mg/kg/injection, schedule: Q01DX005 (ip), vehicle: saline
[3] = dose: 100.0 mg/kg/injection, schedule: Q01DX005 (ip), vehicle: saline
[4] = dose: 200.0 mg/kg/injection, schedule: Q01DX005 (ip), vehicle: saline with Tween-80
[5] = dose: 200.0 mg/kg/injection, schedule: Q01DX005 (ip), vehicle: saline
[6] = dose: 50.0 mg/kg/injection, schedule: Q01DX009 (ip), vehicle: other
[7] = dose: 200.0 mg/kg/injection, schedule: Q01DX009 (ip), vehicle: Klucel (hydroxypropylcellulose) (HPC)
[8] = dose: 100.0 mg/kg/injection, schedule: Q01DX009 (ip), vehicle: saline
[9] = dose: 200.0 mg/kg/injection, schedule: Q01DX009 (ip), vehicle: saline

## CC1=C(C(=O)Nc2ccccc2)C(/C=C/c2ccccc2)C(C(=O)Nc2ccccc2)=C(C)N1
dose: 100.0 mg/kg/injection, schedule: Q01DX001 (ip), vehicle: saline with Tween-80
  survivor count: 6 of 6
dose: 200.0 mg/kg/injection, schedule: Q01DX001 (ip), vehicle: saline with Tween-80
  survivor count: 6 of 6
dose: 400.0 mg/kg/injection, schedule: Q01DX001 (ip), vehicle: saline with Tween-80
  survivor count: 6 of 6

## COC(=O)/C(C#N)=C(/SC)N(C)C
[1]
  survivor count: 2 of 6

## O=c1c2ccccc2nnn1O
dose: 400.0 mg/kg/injection, schedule: Q04DX003 (ip), vehicle: Klucel (hydroxypropylcellulose) (HPC)
  survivor count: 0 of 6

## N#C/C(N)=C(/N)C#N
dose: 100.0 mg/kg/injection, schedule: Q01DX009 (ip), vehicle: saline with Tween-80
  survivor count: 0 of 6, 1 of 6, 6 of 6
[1]
  survivor count: 0 of 6

## Cc1noc(NS(=O)(=O)c2ccc(N=Nc3cc(N=Nc4ccc(S(=O)(=O)Nc5onc(C)c5C)cc4)c4c(NC(=O)C(Cl)Cl)cccc4c3OC(=O)C(Cl)Cl)cc2)c1C
[1]
  survivor count: 2 of 6

## CC1(C)OCC(C2OC3OC(C)(C)OC3/C2=N/NC(=O)c2cc3cc(OCc4ccccc4)ccc3[nH]2)O1 (configuration not stated)
[2]
  survivor count: 6 of 6
[3]
  survivor count: 6 of 6

## COc1ccccc1N=NC1=C2Sc3ccccc3N=C1N(c1ccccn1)C(=S)N2c1ccc(Cl)cc1
dose: 100.0 mg/kg/injection, schedule: Q01DX005 (ip), vehicle: saline with Tween-80
  survivor count: 6 of 6
[4]
  survivor count: 2 of 6

## COc1c2c(c(OC)c3c1C(=O)c1ccccc1C3=O)C(=O)CCC2
dose: 120.0 mg/kg/injection, schedule: Q01DX005 (ip), vehicle: saline with Tween-80
  survivor count: 6 of 6

## C=C1C(=O)OC2CC3(C)OC(=CC3=O)/C(C)=C\C(OC(=O)C3(C)OC3C)C12 (configuration not stated)
dose: 25.0 mg/kg/injection, schedule: Q01DX005 (ip), vehicle: distilled water + Tween-80
  survivor count: 2 of 6
dose: 25.0 mg/kg/injection, schedule: Q01DX005 (ip), vehicle: water
  survivor count: 2 of 6
dose: 50.0 mg/kg/injection, schedule: Q01DX005 (ip), vehicle: water
  survivor count: 0 of 6
dose: 100.0 mg/kg/injection, schedule: Q01DX005 (ip), vehicle: water
  survivor count: 0 of 6

## CCCCOP(=O)(O)OCCCC.[V]
dose: 50.0 mg/kg/injection, schedule: Q01DX009 (ip), vehicle: saline with Tween-80
  survivor count: 5 of 6

## CCOP(=O)(OCC)C(N)Cc1c[nH]c2ccccc12 (configuration not stated)
[5]
  survivor count: 0 of 6

## CNC1CC(C)(O)Cc2cc3c(c(O)c21)C(=O)c1c(O)cc2c(c1C3=O)OC1OC2(C)C(O)C(N(C)C)C1O (configuration not stated)
dose: 3.12 mg/kg/injection, schedule: Q01DX009 (ip), vehicle: other
  T/C: 129 % of control
dose: 6.25 mg/kg/injection, schedule: Q01DX009 (ip), vehicle: other
  T/C: 142 % of control
[6]
  survivor count: 5 of 6

## O=C1C(Cl)=C(N2CCOCC2)C(=O)C(Cl)=C1N1CCOCC1
dose: 200.0 mg/kg/injection, schedule: Q01DX005 (ip), vehicle: suspension in saline
  survivor count: 0 of 6

## COc1cc(/C=N/NP(=S)(Oc2ccc(C(C)(C)C)cc2)Oc2ccc(C(C)(C)C)cc2)cc(OC)c1O
[7]
  survivor count: 6 of 6

## O=C(CCSCCCl)Nc1c(C(=O)O)cc([N+](=O)[O-])cc1[N+](=O)[O-]
dose: 200.0 mg/kg/injection, schedule: Q04DX003 (ip), vehicle: DMSO
  survivor count: 6 of 6

## COC(=O)NC(=O)CCC(=O)O
[8]
  survivor count: 5 of 6
[9]
  survivor count: 5 of 6

## COc1cccc2c1C(=O)c1c(O)c3c(c(O)c1C2=O)CC(O)(C(C)=O)CC3OC1CC([N+](C)(C)C)C(O)C(C)O1 (configuration not stated)
dose: 6.25 mg/kg/injection, schedule: Q01DX009 (ip), vehicle: water
  survivor count: 6 of 6
dose: 50.0 mg/kg/injection, schedule: Q01DX009 (ip), vehicle: water
  survivor count: 3 of 6
dose: 100.0 mg/kg/injection, schedule: Q01DX009 (ip), vehicle: water
  survivor count: 0 of 6

## NNC(=O)CCCl
dose: 42.0 mg/kg/injection, schedule: Q01DX009 (ip), vehicle: saline
  survivor count: 5 of 6
dose: 84.0 mg/kg/injection, schedule: Q01DX009 (ip), vehicle: saline
  survivor count: 0 of 6
dose: 168.0 mg/kg/injection, schedule: Q01DX009 (ip), vehicle: saline
  survivor count: 0 of 6

## CC1(C)CC(=O)C([Se]C2=C(O)CC(C)(C)CC2=O)=C(O)C1
dose: 50.0 mg/kg/injection, schedule: Q01DX009 (ip), vehicle: saline
  survivor count: 5 of 6
[8]
  survivor count: 2 of 6
[9]
  survivor count: 0 of 6

## COc1cc(C(=O)NOCc2cc3c(cc2Cl)OCO3)cc(OC)c1OC
dose: 200.0 mg/kg/injection, schedule: Q04DX003 (ip), vehicle: saline sonified
  survivor count: 6 of 6

## CC1C2(c3ccccc3)C(C(=O)c3ccccc3)NC(c3ccccc3)C12c1ccccc1 (configuration not stated)
[4]
  survivor count: 6 of 6

## C=CC1=C(C)C2=NC1=CC1=NC(=CC3=C(C)C4=C(O)C(C(=O)O)C(=C5NC(=C2)C(C)C5CCC(=O)O)C4=N3)C(CC)=C1C (configuration not stated)
dose: 25.0 mg/kg/injection, schedule: Q01DX005 (ip), vehicle: suspension in saline
  survivor count: 0 of 5

## CCN=C(c1ccc(NC(=O)c2ccc(C(=O)Nc3ccc(C(=NCC)N(CC)CC)cc3)c(Cl)c2)cc1)N(CC)CC
dose: 0.78 mg/kg/injection, schedule: Q01DX005 (ip), vehicle: saline
  survivor count: 0 of 6
dose: 1.56 mg/kg/injection, schedule: Q01DX005 (ip), vehicle: saline
  survivor count: 0 of 6
dose: 3.12 mg/kg/injection, schedule: Q01DX005 (ip), vehicle: saline
  survivor count: 0 of 6
dose: 6.25 mg/kg/injection, schedule: Q01DX005 (ip), vehicle: saline
  survivor count: 0 of 6
dose: 12.5 mg/kg/injection, schedule: Q01DX005 (ip), vehicle: saline
  survivor count: 0 of 6
dose: 25.0 mg/kg/injection, schedule: Q01DX005 (ip), vehicle: saline
  survivor count: 0 of 6
[2]
  survivor count: 0 of 6
[3]
  survivor count: 0 of 6
[5]
  survivor count: 0 of 6

## OC1C(O)C(O)C(O)C(O)C1O.[Cu+2].[Cu] (configuration not stated)
dose: 25.0 mg/kg/injection, schedule: Q01DX005 (ip), vehicle: Klucel (hydroxypropylcellulose) (HPC)
  survivor count: 0 of 6
dose: 50.0 mg/kg/injection, schedule: Q01DX005 (ip), vehicle: Klucel (hydroxypropylcellulose) (HPC)
  survivor count: 0 of 6
dose: 100.0 mg/kg/injection, schedule: Q01DX005 (ip), vehicle: Klucel (hydroxypropylcellulose) (HPC)
  survivor count: 0 of 6
dose: 200.0 mg/kg/injection, schedule: Q01DX005 (ip), vehicle: Klucel (hydroxypropylcellulose) (HPC)
  survivor count: 0 of 6

## O=C(O)/C=N/NS(=O)(=O)c1ccc(Cl)cc1
dose: 12.5 mg/kg/injection, schedule: Q01DX009 (ip), vehicle: other
  T/C: 126 % of control
dose: 25.0 mg/kg/injection, schedule: Q01DX009 (ip), vehicle: other
  T/C: 134 and 142 % of control
[6]
  T/C: 134 % of control
dose: 100.0 mg/kg/injection, schedule: Q01DX009 (ip), vehicle: other
  survivor count: 0 of 6
dose: 200.0 mg/kg/injection, schedule: Q01DX009 (ip), vehicle: other
  survivor count: 2 of 6
dose: 400.0 mg/kg/injection, schedule: Q01DX009 (ip), vehicle: other
  survivor count: 1 of 6

## CC(=O)NCCSSCCCCS(=O)O
[5]
  T/C: 125 % of control
dose: 400.0 mg/kg/injection, schedule: Q01DX005 (ip), vehicle: saline
  T/C: 137 % of control

## CCN(CC)c1ccc(NC(=S)NN)cc1
dose: 240.0 mg/kg/injection, schedule: Q01DX005 (ip), vehicle: Klucel (hydroxypropylcellulose) (HPC)
  survivor count: 0 of 6

## COc1ccc(C(CC(=O)c2ccccc2)[Se]c2ccccc2)cc1 (configuration not stated)
[7]
  survivor count: 5 of 6
